Drawing on article PMC11164896, this text covers binding for three molecules.

These are yes or no findings as the source states them, for the method shown. In cells and extracts the contact can be indirect. Some results given as binding are weak or reduced against the parent protein; the word gives no strength. For some of these results: Sequences can lack the tags named with a protein.

The target in experiment [1] is T1, Myocardin-related transcription factor A (MRTF-A), overexpressed from adenovirus Ad-h-MKL1/eGFP (human) (UniProt Q969V6).
T1 sequence: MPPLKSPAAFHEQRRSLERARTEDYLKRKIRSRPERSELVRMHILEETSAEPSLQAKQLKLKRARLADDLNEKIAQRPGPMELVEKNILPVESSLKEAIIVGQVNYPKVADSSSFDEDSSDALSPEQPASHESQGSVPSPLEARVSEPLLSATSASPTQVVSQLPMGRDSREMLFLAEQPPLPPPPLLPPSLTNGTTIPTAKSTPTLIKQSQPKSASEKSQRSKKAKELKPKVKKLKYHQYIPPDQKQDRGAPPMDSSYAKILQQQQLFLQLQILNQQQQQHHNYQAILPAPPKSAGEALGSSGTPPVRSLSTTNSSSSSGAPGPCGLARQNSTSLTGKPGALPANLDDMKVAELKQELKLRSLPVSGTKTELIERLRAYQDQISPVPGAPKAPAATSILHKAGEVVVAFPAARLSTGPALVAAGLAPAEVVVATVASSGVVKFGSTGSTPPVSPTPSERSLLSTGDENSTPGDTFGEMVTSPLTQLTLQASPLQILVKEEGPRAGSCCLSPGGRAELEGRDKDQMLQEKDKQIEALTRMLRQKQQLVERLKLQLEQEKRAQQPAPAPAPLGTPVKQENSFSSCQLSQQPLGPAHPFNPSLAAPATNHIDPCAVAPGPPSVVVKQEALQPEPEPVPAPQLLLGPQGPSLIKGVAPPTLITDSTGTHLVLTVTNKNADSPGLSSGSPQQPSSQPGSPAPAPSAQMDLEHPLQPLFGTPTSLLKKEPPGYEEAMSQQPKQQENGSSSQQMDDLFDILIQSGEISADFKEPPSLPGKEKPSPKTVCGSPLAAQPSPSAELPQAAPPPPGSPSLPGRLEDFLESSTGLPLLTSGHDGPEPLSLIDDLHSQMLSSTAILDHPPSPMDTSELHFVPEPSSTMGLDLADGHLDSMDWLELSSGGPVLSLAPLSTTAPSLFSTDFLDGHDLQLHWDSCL
Nature of the experiment: co-IP; anti-MRTF-A antibody coupled to AminoLink Plus resin (Pierce Co-IP kit), inactive control resin as control; pre-cleared lysates (~0.5 mg protein) of human coronary artery SMCs transduced with MRTF-A for 4 or 8 days, overnight at 4 °C; eluates read by dot blot; also cells treated with 100 nM jasplakinolide for the last 24 h.

Experiment [2] concerns the target T1, Myocardin-related transcription factor A (MRTF-A), overexpressed from adenovirus Ad-h-MKL1/eGFP (human). Nature of the experiment: proximity ligation; Duolink in situ PLA on fixed, permeabilised human coronary artery SMCs after 4 days of null or MRTF-A virus; antibody pairs TBK1 + MRTF-A and P-TBK1 + MRTF-A; puncta mark proteins within 40 nm.
Experiment [3] concerns the target T2, Myocardin-related transcription factor A (MRTF-A), endogenous in null-virus-transduced cells (human (endogenous in human coronary artery SMCs)) (UniProt Q969V6).
T2 sequence: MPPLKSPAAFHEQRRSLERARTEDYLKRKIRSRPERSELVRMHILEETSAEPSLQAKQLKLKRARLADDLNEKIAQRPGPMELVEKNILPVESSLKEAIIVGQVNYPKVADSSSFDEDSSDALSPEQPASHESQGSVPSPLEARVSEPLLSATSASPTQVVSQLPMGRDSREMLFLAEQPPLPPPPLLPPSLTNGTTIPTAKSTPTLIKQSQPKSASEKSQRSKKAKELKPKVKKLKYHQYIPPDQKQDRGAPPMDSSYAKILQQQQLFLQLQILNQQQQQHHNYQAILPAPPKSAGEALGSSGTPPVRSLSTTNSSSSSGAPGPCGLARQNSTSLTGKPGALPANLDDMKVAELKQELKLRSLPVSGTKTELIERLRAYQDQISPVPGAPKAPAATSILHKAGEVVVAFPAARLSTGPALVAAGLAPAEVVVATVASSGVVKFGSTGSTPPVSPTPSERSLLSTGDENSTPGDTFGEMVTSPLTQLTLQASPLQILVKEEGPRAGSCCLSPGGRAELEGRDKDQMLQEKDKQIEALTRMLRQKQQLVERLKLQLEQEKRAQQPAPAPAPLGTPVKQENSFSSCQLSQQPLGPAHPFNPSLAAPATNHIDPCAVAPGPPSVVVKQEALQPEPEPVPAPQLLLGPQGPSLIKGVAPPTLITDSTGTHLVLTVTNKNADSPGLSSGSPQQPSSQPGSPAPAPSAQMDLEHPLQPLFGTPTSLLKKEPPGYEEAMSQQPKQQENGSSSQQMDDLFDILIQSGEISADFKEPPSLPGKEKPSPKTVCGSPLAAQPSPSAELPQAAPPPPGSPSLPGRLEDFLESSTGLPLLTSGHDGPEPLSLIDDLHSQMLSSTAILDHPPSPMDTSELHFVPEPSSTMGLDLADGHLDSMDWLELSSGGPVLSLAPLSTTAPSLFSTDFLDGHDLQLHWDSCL
The experiment is described as above.

B1: Serum response factor (SRF) (protein, UniProt P11831 1-508)
chain: MLPTQAGAAAALGRGSALGGSLNRTPTGRPGGGGGTRGANGGRVPGNGAGLGPGRLEREAAAAAATTPAPTAGALYSGSEGDSESGEEEELGAERRGLKRSLSEMEIGMVVGGPEASAAATGGYGPVSGAVSGAKPGKKTRGRVKIKMEFIDNKLRRYTTFSKRKTGIMKKAYELSTLTGTQVLLLVASETGHVYTFATRKLQPMITSETGKALIQTCLNSPDSPPRSDPTTDQRMSATGFEETDLTYQVSESDSSGETKDTLKPAFTVTNLPGTTSTIQTAPSTSTTMQVSSGPSFPITNYLAPVSASVSPSAVSSANGTVLKSTGSGPVSSGGLMQLPTSFTLMPGGAVAQQVPVQAIQVHQAPQQASPSRDSSTDLTQTSSSGTVTLPATIMTSSVPTTVGGHMMYPSPHAVMYAPTSGLGDGSLTVLNAFSQAPSTMQVSHSQVQEPGGVPQVFLTASSGTVQIPVSAVQLHQMAVIGQQAGSSSNLTELQVVNLDTAHSTKSE
On to B1, for which the binding entry in experiment [1] is listed as “binds”.

B2: TANK-binding kinase 1 (TBK1), total (enzyme, UniProt Q9UHD2 1-729)
chain: MQSTSNHLWLLSDILGQGATANVFRGRHKKTGDLFAIKVFNNISFLRPVDVQMREFEVLKKLNHKNIVKLFAIEEETTTRHKVLIMEFCPCGSLYTVLEEPSNAYGLPESEFLIVLRDVVGGMNHLRENGIVHRDIKPGNIMRVIGEDGQSVYKLTDFGAARELEDDEQFVSLYGTEEYLHPDMYERAVLRKDHQKKYGATVDLWSIGVTFYHAATGSLPFRPFEGPRRNKEVMYKIITGKPSGAISGVQKAENGPIDWSGDMPVSCSLSRGLQVLLTPVLANILEADQEKCWGFDQFFAETSDILHRMVIHVFSLQQMTAHKIYIHSYNTATIFHELVYKQTKIISSNQELIYEGRRLVLEPGRLAQHFPKTTEENPIFVVSREPLNTIGLIYEKISLPKVHPRYDLDGDASMAKAITGVVCYACRIASTLLLYQELMRKGIRWLIELIKDDYNETVHKKTEVVITLDFCIRNIEKTVKVYEKLMKINLEAAELGEISDIHTKLLRLSSSQGTIETSLQDIDSRLSPGGSLADAWAHQEGTHPKDRNVEKLQVLLNCMTEIYYQFKKDKAERRLAYNEEQIHKFDKQKLYYHATKAMTHFTDECVKKYEAFLNKSEEWIRKMLHLRKQLLSLTNQCFDIEEEVSKYQEYTNELQETLPQKMFTASSGIKHTMTPIYPSSNTLVEMTLGMKKLKEEMEGVVKELAENNHILERFGSLTMDGGLRNVDCL
In the case of B2, the binding result in experiment [1], in experiment [2] and in experiment [3] was “binds” in each case.

B3: Phosphorylated TANK-binding kinase 1 (p-TBK1, Ser172) (enzyme, UniProt Q9UHD2 1-729)
chain: MQSTSNHLWLLSDILGQGATANVFRGRHKKTGDLFAIKVFNNISFLRPVDVQMREFEVLKKLNHKNIVKLFAIEEETTTRHKVLIMEFCPCGSLYTVLEEPSNAYGLPESEFLIVLRDVVGGMNHLRENGIVHRDIKPGNIMRVIGEDGQSVYKLTDFGAARELEDDEQFVSLYGTEEYLHPDMYERAVLRKDHQKKYGATVDLWSIGVTFYHAATGSLPFRPFEGPRRNKEVMYKIITGKPSGAISGVQKAENGPIDWSGDMPVSCSLSRGLQVLLTPVLANILEADQEKCWGFDQFFAETSDILHRMVIHVFSLQQMTAHKIYIHSYNTATIFHELVYKQTKIISSNQELIYEGRRLVLEPGRLAQHFPKTTEENPIFVVSREPLNTIGLIYEKISLPKVHPRYDLDGDASMAKAITGVVCYACRIASTLLLYQELMRKGIRWLIELIKDDYNETVHKKTEVVITLDFCIRNIEKTVKVYEKLMKINLEAAELGEISDIHTKLLRLSSSQGTIETSLQDIDSRLSPGGSLADAWAHQEGTHPKDRNVEKLQVLLNCMTEIYYQFKKDKAERRLAYNEEQIHKFDKQKLYYHATKAMTHFTDECVKKYEAFLNKSEEWIRKMLHLRKQLLSLTNQCFDIEEEVSKYQEYTNELQETLPQKMFTASSGIKHTMTPIYPSSNTLVEMTLGMKKLKEEMEGVVKELAENNHILERFGSLTMDGGLRNVDCL
modifications: phosphoserine at 172 (p-TBK1, Ser172)
Turning to B3, the binding result in experiment [1], in experiment [2] and in experiment [3] was “binds” in each case.
